Laboratory results as given in paper doi:10.1101/2025.02.09.636592.
These are yes or no findings as the source states them, for the method shown. In cells and extracts the contact can be indirect. Some results given as binding are weak or reduced against the parent protein; the word gives no strength. Tags and fused reporters may be left off the sequences shown.

Molecular target: T1, endogenous thioredoxin (TRX) of HEK293T cells (human (endogenous in HEK293T)) (UniProt P10599)
T1 sequence: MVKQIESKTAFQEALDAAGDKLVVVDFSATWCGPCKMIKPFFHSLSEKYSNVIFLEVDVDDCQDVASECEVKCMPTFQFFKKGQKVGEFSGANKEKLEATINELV
Test: co-IP

binding: binds
B1: C1ORF116-V5 transiently expressed in HEK293T cells (protein, UniProt Q9BW04 1-601)
chain: MPERELWPAGTGSEPVTRVGSCDSMMSSTSTRSGSSDSSYDFLSTEEKECLLFLEETIGSLDTEADSGLSTDESEPATTPRGFRALPITQPTPRGGPEETITQQGRTPRTVTESSSSHPPEPQGLGLRSGSYSLPRNIHIARSQNFRKSTTQASSHNPGEPGRLAPEPEKEQVSQSSQPRQAPASPQEAALDLDVVLIPPPEAFRDTQPEQCREASLPEGPGQQGHTPQLHTPSSSQEREQTPSEAMSQKAKETVSTRYTQPQPPPAGLPQNARAEDAPLSSGEDPNSRLAPLTTPKPRKLPPNIVLKSSRSSFHSDPQHWLSRHTEAAPGDSGLISCSLQEQRKARKEALEKLGLPQDQDEPGLHLSKPTSSIRPKETRAQHLSPAPGLAQPAAPAQASAAIPAAGKALAQAPAPAPGPAQGPLPMKSPAPGNVAASKSMPISIPKAPRANSALTPPKPESGLTLQESNTPGLRQMNFKSNTLERSGVGLSSYLSTEKDASPKTSTSLGKGSFLDKISPSVLRNSRPRPASLGTGKDFAGIQVGKLADLEQEQSSKRLSYQGQSRDKLPRPPCVSVKISPKGVPNEHRREALKKLGLLKE
